# According to the supplement of paper PMC4604168 (melanoma cell lines):
# The list shows a part of the results. Many values rest on one well or one pass, so single values are uncertain.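 Imaging used 1,536-well plates; nuclei positive for cleaved PARP by antibody were divided by total DNA-stained nuclei to yield the apoptosis fraction. Doses for screening kept most cells viable, and cell lines differ markedly in resting and induced cleaved-PARP levels.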
# Test system: A375
# Assay: cleaved PARP positive nuclei fraction relative to DMSO control; melanoma cells; higher = more apoptosis
# Settings: library dose: low library concentration; 72 h
row,SMILES,cleaved PARP positive nuclei fraction
1,"CNC(=O)c1cc(Oc2ccc(NC(=O)Nc3ccc(Cl)c(C(F)(F)F)c3)cc2)ccn1 [sorafenib] + Cn1c(Nc2ccc(C(F)(F)F)cc2)nc2cc(Oc3ccnc(-c4ncc(C(F)(F)F)[nH]4)c3)ccc21 [CHIR265] (first compound 0.4 µM, partner dose 0.08 µM)",197%
2,"Cc1cc(Nc2cc(N3CCN(C)CC3)nc(/C=C/c3ccccc3)n2)n[nH]1 + NC1(c2ccc(-c3nc4ccn5c(=O)[nH]nc5c4cc3-c3ccccc3)cc2)CCC1 [MK2206] (first compound 0.04 µM, partner dose 0.4 µM)",142%
3,"CC(C)C[C@H](NC(=O)[C@H](Cc1ccccc1)NC(=O)c1cnccn1)B(O)O [Bortezomib] + CS(=O)(=O)CCNCc1ccc(-c2ccc3ncnc(Nc4ccc(OCc5cccc(F)c5)c(Cl)c4)c3c2)o1 [lapatinib] (first compound 0.001 µM, partner dose 0.8 µM)",74.1%
4,"CO[C@H]1C[C@@H]2CC[C@@H](C)[C@@](O)(O2)C(=O)C(=O)N2CCCC[C@H]2C(=O)O[C@H]([C@H](C)C[C@@H]2CC[C@@H](OCCO)[C@H](OC)C2)CC(=O)[C@H](C)/C=C(\C)[C@@H](O)[C@@H](OC)C(=O)[C@H](C)C[C@H](C)/C=C/C=C/C=C/1C [everolimus] + Cn1nnc2c(C(N)=O)ncn2c1=O [temozolomide] (first compound 0.02 µM, partner dose 2 µM)",860%
5,"O=C(O)[C@@H]1[O][Sb](=[O])([O][Sb]2(=[O])[O][C@H]([C@H](O)CO)[C@H](O)[C@H](C(=O)O)[O]2)[O][C@H]([C@H](O)CO)[C@@H]1O (stereo partly drawn) [stibogluconate] + C#Cc1cccc(Nc2ncnc3cc(OCCOC)c(OCCOC)cc23)c1 [erlotinib] (first compound 2 µM, partner dose 0.8 µM)",79.9%
6,"C=C(c1ccc(C(=O)O)cc1)c1cc2c(cc1C)C(C)(C)CCC2(C)C [Bexarotene] + Nc1nc(F)nc2c1ncn2[C@@H]1O[C@H](CO)[C@@H](O)[C@@H]1O [fludarabine] (first compound 2 µM, partner dose 0.2 µM)",5720%
7,"CNC(=O)c1cc(Oc2ccc(NC(=O)Nc3ccc(Cl)c(C(F)(F)F)c3)cc2)ccn1 [sorafenib] + C=CCNC1=C2C[C@@H](C)C[C@H](OC)[C@H](O)[C@@H](C)/C=C(\C)[C@H](OC(N)=O)[C@@H](OC)/C=C\C=C(/C)C(=O)NC(=CC1=O)C2=O [Tanespimycin] (first compound 0.4 µM, partner dose 0.002 µM)",40.6%
8,"Cn1c(=O)n(-c2ccc(C(C)(C)C#N)cc2)c2c3cc(-c4cnc5ccccc5c4)ccc3ncc21 + Nc1ncn([C@H]2C[C@H](O)[C@@H](CO)O2)c(=O)n1 [decitabine] (first compound 0.004 µM, partner dose 0.1 µM)",176%
9,"CC(C)C[C@H](NC(=O)[C@H](Cc1ccccc1)NC(=O)c1cnccn1)B(O)O [Bortezomib] + C=C(c1ccc(C(=O)O)cc1)c1cc2c(cc1C)C(C)(C)CCC2(C)C [Bexarotene] (first compound 0.001 µM, partner dose 2 µM)",124%
10,"CCCS(=O)(=O)Nc1ccc(F)c(C(=O)c2c[nH]c3ncc(Cl)cc23)c1F + COCC[n+]1c2c(n(Cc3cnccn3)c1C)C(=O)c1ccccc1C2=O [YM155] (first compound 0.08 µM, partner dose 0.0004 µM)",253%
11,"CN1CCN(c2ccc3nc(-c4c(N)c5c(F)cccc5[nH]c4=O)[nH]c3c2)CC1 [Dovitinib] + Cn1c(Nc2ccc(C(F)(F)F)cc2)nc2cc(Oc3ccnc(-c4ncc(C(F)(F)F)[nH]4)c3)ccc21 [CHIR265] (first compound 0.1 µM, partner dose 0.08 µM)",274%
12,"Cn1c(=O)n(-c2ccc(C(C)(C)C#N)cc2)c2c3cc(-c4cnc5ccccc5c4)ccc3ncc21 + Cn1nnc2c(C(N)=O)ncn2c1=O [temozolomide] (first compound 0.004 µM, partner dose 2 µM)",229%
13,"CC(C)C[C@H](NC(=O)[C@H](Cc1ccccc1)NC(=O)c1cnccn1)B(O)O [Bortezomib] + C[C@@H](Oc1cc(-c2cnn(C3CCNCC3)c2)cnc1N)c1c(Cl)ccc(F)c1Cl [Crizotinib] (first compound 0.001 µM, partner dose 0.2 µM)",257%
14,"O=C(O)[C@@H]1[O][Sb](=[O])([O][Sb]2(=[O])[O][C@H]([C@H](O)CO)[C@H](O)[C@H](C(=O)O)[O]2)[O][C@H]([C@H](O)CO)[C@@H]1O (stereo partly drawn) [stibogluconate] + OCc1c[nH]c2ccccc12 [Indole-3-carbinol] (first compound 2 µM, partner dose 0.8 µM)",103%
15,"C=C(c1ccc(C(=O)O)cc1)c1cc2c(cc1C)C(C)(C)CCC2(C)C [Bexarotene] + Cn1nnc2c(C(N)=O)ncn2c1=O [temozolomide] (first compound 2 µM, partner dose 2 µM)",59.8%
16,"Nc1ncn([C@H]2C[C@H](O)[C@@H](CO)O2)c(=O)n1 [decitabine] + C[C@]1(c2nc3c(C(N)=O)cccc3[nH]2)CCCN1 [Veliparib] (first compound 0.1 µM, partner dose 1.4 µM)",112%
17,"CN1CCN(c2ccc3nc(-c4c(N)c5c(F)cccc5[nH]c4=O)[nH]c3c2)CC1 [Dovitinib] + Nc1nc(F)nc2c1ncn2[C@@H]1O[C@H](CO)[C@@H](O)[C@@H]1O [fludarabine] (first compound 0.1 µM, partner dose 0.2 µM)",1940%
18,"CO[C@H]1C[C@@H]2CC[C@@H](C)[C@@](O)(O2)C(=O)C(=O)N2CCCC[C@H]2C(=O)O[C@H]([C@H](C)C[C@@H]2CC[C@@H](OCCO)[C@H](OC)C2)CC(=O)[C@H](C)/C=C(\C)[C@@H](O)[C@@H](OC)C(=O)[C@H](C)C[C@H](C)/C=C/C=C/C=C/1C [everolimus] + Clc1ccc(Nc2nnc(Cc3ccncc3)c3ccccc23)cc1 [vatalanib] (first compound 0.02 µM, partner dose 2 µM)",776%
19,"CO[C@H]1C[C@@H]2CC[C@@H](C)[C@@](O)(O2)C(=O)C(=O)N2CCCC[C@H]2C(=O)O[C@H]([C@H](C)C[C@@H]2CC[C@@H](OCCO)[C@H](OC)C2)CC(=O)[C@H](C)/C=C(\C)[C@@H](O)[C@@H](OC)C(=O)[C@H](C)C[C@H](C)/C=C/C=C/C=C/1C [everolimus] + C#Cc1cccc(Nc2ncnc3cc(OCCOC)c(OCCOC)cc23)c1 [erlotinib] (first compound 0.02 µM, partner dose 0.8 µM)",843%
20,"CS(=O)(=O)CCNCc1ccc(-c2ccc3ncnc(Nc4ccc(OCc5cccc(F)c5)c(Cl)c4)c3c2)o1 [lapatinib] + OCc1c[nH]c2ccccc12 [Indole-3-carbinol] (first compound 0.8 µM, partner dose 0.8 µM)",48.9%
21,"C[C@@H](Oc1cc(-c2cnn(C3CCNCC3)c2)cnc1N)c1c(Cl)ccc(F)c1Cl [Crizotinib] + Nc1ccn([C@@H]2O[C@H](CO)[C@@H](O)C2(F)F)c(=O)n1 [gemcitabine] (first compound 0.2 µM, partner dose 0.0004 µM)",51.4%
22,"O=C(O)[C@@H]1[O][Sb](=[O])([O][Sb]2(=[O])[O][C@H]([C@H](O)CO)[C@H](O)[C@H](C(=O)O)[O]2)[O][C@H]([C@H](O)CO)[C@@H]1O (stereo partly drawn) [stibogluconate] + COc1ccc(Cl)c(Nc2nc3ccccc3nc2NS(=O)(=O)c2cccc(NC(=O)C(C)(C)N)c2)c1 [XL147] (first compound 2 µM, partner dose 0.8 µM)",269%
23,"Cc1cc(Nc2cc(N3CCN(C)CC3)nc(/C=C/c3ccccc3)n2)n[nH]1 + C#Cc1cccc(Nc2ncnc3cc(OCCOC)c(OCCOC)cc23)c1 [erlotinib] (first compound 0.04 µM, partner dose 0.8 µM)",288%
24,"Nc1ccn([C@@H]2O[C@H](CO)[C@@H](O)C2(F)F)c(=O)n1 [gemcitabine] + COc1ccc(Cl)c(Nc2nc3ccccc3nc2NS(=O)(=O)c2cccc(NC(=O)C(C)(C)N)c2)c1 [XL147] (first compound 0.0004 µM, partner dose 0.8 µM)",73.4%
25,"Cc1cc(Nc2cc(N3CCN(C)CC3)nc(/C=C/c3ccccc3)n2)n[nH]1 + CNC(=O)c1cc(Oc2ccc(NC(=O)Nc3ccc(Cl)c(C(F)(F)F)c3)cc2)ccn1 [sorafenib] (first compound 0.04 µM, partner dose 0.4 µM)",234%
26,"O=C(O)c1ccc2c(c1)nc(Nc1cccc(Cl)c1)c1ccncc12 + Nc1nc(F)nc2c1ncn2[C@@H]1O[C@H](CO)[C@@H](O)[C@@H]1O [fludarabine] (first compound 0.4 µM, partner dose 0.2 µM)",6210%
27,"O=C(O)c1ccc2c(c1)nc(Nc1cccc(Cl)c1)c1ccncc12 + Nc1cccc2c1CN(C1CCC(=O)NC1=O)C2=O [lenalidomide] (first compound 0.4 µM, partner dose 1 µM)",220%
28,"Nc1ncn([C@H]2C[C@H](O)[C@@H](CO)O2)c(=O)n1 [decitabine] + OCc1c[nH]c2ccccc12 [Indole-3-carbinol] (first compound 0.1 µM, partner dose 0.8 µM)",128%

# Single values from the entries so far.
# Under cleaved PARP positive nuclei fraction, Nc1ccn([C@@H]2O[C@H](CO)[C@@H](O)C2(F)F)c(=O)n1 [gemcitabine] + COc1ccc(Cl)c(Nc2nc3ccccc3nc2NS(=O)(=O)c2cccc(NC(=O)C(C)(C)N)c2)c1 [XL147] (first compound 0.0004 µM, partner dose 0.8 µM) has the entry 73.4%
# Under cleaved PARP positive nuclei fraction, CC(C)C[C@H](NC(=O)[C@H](Cc1ccccc1)NC(=O)c1cnccn1)B(O)O [Bortezomib] + C[C@@H](Oc1cc(-c2cnn(C3CCNCC3)c2)cnc1N)c1c(Cl)ccc(F)c1Cl [Crizotinib] (first compound 0.001 µM, partner dose 0.2 µM) has the entry 257%
